This assay deals with FLAG-caspase-1 (porcine) (porcine) (UniProt Q9N2I1). The assay is described as follows: co-IP.

By UniProt entry, the sequences of proteins in these tests, tags left out.
UniProt Q9N2I1: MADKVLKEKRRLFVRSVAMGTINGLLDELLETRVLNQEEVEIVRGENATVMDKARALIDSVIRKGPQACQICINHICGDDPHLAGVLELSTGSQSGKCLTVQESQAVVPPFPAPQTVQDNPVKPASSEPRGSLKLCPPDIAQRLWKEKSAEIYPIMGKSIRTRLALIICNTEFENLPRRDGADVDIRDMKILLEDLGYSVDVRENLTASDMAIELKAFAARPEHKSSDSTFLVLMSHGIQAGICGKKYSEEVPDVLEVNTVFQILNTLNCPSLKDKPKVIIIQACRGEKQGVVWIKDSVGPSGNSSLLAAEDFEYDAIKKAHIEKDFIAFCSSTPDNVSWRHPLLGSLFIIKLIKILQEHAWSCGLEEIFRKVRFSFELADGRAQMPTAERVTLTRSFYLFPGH

No constants are given. Whether binding was seen depends on the method and setting. In cells and extracts the contact can be indirect. Some results given as binding are weak or reduced against the parent protein; the word gives no strength. Where a sequence is shown, tags or fusion partners need not be part of it.

B1: S-MYC-RIG-I (porcine derived) (protein, UniProt Q9GLV6 1-940)
chain: MTAEQRRNLHAFGDYVRKTLDPTFILSYMAPWFRDDEVQHIQAEKNNKGPTEAASLFLQFLLELQEEGWFRGFLDALNQAGYCGLCEAIESWDFQKIEKLEEYRSLLRRLQPEFKTTINPKDILPEIAECLISQECEEILQICSSKGLMAGAEKMVECLLRSDKENWPKTLKLALEKEESRFSELWMVDKGAEDVKMKDLEDDEMKTCDVQIFYKEEPENQNLSQNSCSSSAPHTYSPLKPRKYQLELALPAQNGKNTIICAPTGCGKTFVSLLICEHHLKKFPRGRKGKVVFFAIQLPVYEQQKSVFSKHFERLGYKVAGISGATSDTVCVEQIVENSDIIILTPQILVNCLTNGTIPSLSVFTLMIFDECHNTSKQHPYNVIMFSYLDRKLGGSSDSLPQVIGLTASVGVGDAKNKAEATEYICKLCASLDTSVIATVRDNLEELEEVVYKPQKFFRKVELRTTDRFKCIISQLMMEIESLAKSIFEELGTITLGGLFQIQNSNFGTQKYEQWIVKVQKECAVFQMPDKDKESRICKALFSYMSHLRIYNDALIINEHARMKDALDYLKDFFRNIRAAGFDEIEQDLTQRFEEKLQELESISIDPSNENPKLRDLCFILQEEYHLNPETRTILFVKTRALVDALKKWIKENPKLSFLKPSILTGRGKTNQNIGMTLPAQKCVLDTFRTDKDNKILITTSVADEGIDIAQCNLVILYEYVGNVIKMIQTRGRGRARGSKCFLLTANADLIDKEKMNMYKEEMMNGAILILQTWDEAVFKEKIHQIQIREKIIRDNQGKPEPVPDKKTKKLLCKKCKAFACYTADIRMVEKCHFTVVGDAFRERFVSKLHPKPKSFGNIEKRAKIYCARPDCSHDWGIYVRYKAFEMPFIKIESFVVEDIATGVQTVHAKWKDFNFEKLSFDAAEMAGGAQDLGLQGMGN
Regarding B1, the binding result is “binds”.
